# Test results from patent US20210169911A1, “PURINE AND PYRIMIDINE NUCLEOTIDES AS ECTO-5'-NUCLEOTIDASE INHIBITORS” (The United States of America,as represented by the …, priority 2018, published 2021).
# Some results were stated once for a whole list of compounds, not compound by compound. Some ranges recur; such a range may be that of the whole group of compounds.
# Test system: recombinant soluble human CD73
# Assay: Radiometric CD73 inhibition assay, recombinant soluble human CD73
# Format: biochemical
# Settings: human vs rat CD73 Ki, Table 5
# Description: The cDNA for the soluble human CD73 (Genbank accession no. NM_002526) was obtained from Prof. Dr. Norbert Sträter (University of Leipzig, Germany) (3). […] Sf9 insect cells were grown in Insect-[…] media (#: BE12-[…], Lonza, Switzerland) with 10 mg/l gentamicin and split at a ratio of 1:3 every fourth day. For transfection, cells were seeded into cell culture flasks (25 cm^2) at 60-70% confluence. 100 μl of cell medium and 1 μl of the vector DNA (1000 ng/μ1) were mixed with 2.5 μl of baculovirus genomic ProEasyTM vector DNA (AB vector, CA, USA) and combined with premixed 100 μl of cell medium and 8 μl of CellfectinTM II Reagent (Thermo Fisher Scientific, MA, USA). […] The cells were incubated for 30 min at rt, and for further 4 days at 27° C. Cells from the transfection procedure were detached from the bottom of the flasks and centrifuged for 5 min at 2000 g. 1.5 ml of the supernatant (viral stock) was added to 75 cm^2 cell culture flasks containing Sf9 cells (60-70% confluence), and the cells were incubated for four days at 27° C. Then 1.5 ml of the supernatant were taken and added to uninfected Sf9 cells in a 75 cm^2 flask. This was repeated five more times, using more cells and larger flasks after the third round of infections (150 cm^2 to which 3.0 ml of supernatant were added). The stock P8 was finally used for infection of the cells. […]
compound,measurement,value
"O=C(Nc1ccn([C@@H]2O[C@H](COP(=O)(O)CP(=O)(O)O)C(O)C2O)c(=O)n1)c1ccccc1 (stereo partly shown) [Compound 7f, 4-Benzoylcytidine-5′-O-[(phosphonomethyl)phosphonic acid]]",potency at human CD73 as compared to the rat enzyme,2 to 3 fold
